Some of the results follow. Further columns of the screen follow, without active or inactive calls. The list favours compounds with an active or inconclusive main result. Words in brackets tell the shape of the fitted curve; partial curves, single points and poor fits give uncertain potencies.
Experiment: qHTS Assay for Modulators of Lamin A Splicing
Details: HeLa LMNA splicing GFP/RFP minigene ratio, 48 h
Summary of the method: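 Read-out is the ratio of GFP to DsRed2 object intensity, acquired by 488 nm laser-scanning cytometry on HeLa lamin A-EGFP minigene reporter cells. Compound incubation 48 hrs at 37 °C in Opti-MEM with 2% FBS; DMSO 0.5% final.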

[1] = measured here: GFP splicing reporter channel
[2] = measured here: RFP viability control channel

Row | Compound | AC50 [1] | AC50 [2]
1 | COc1ccc(N2CCN(C(=O)c3ccc(C)c(Cl)c3)CC2)cc1 | 17.8 µM [rising, single point] | 22.4 µM [rising, single point]
2 | CCCCN(CCCC)c1cc(C)nc(-c2ccccc2O)n1 | 25.1 µM [rising, partial curve, poor fit] | 17.8 µM [rising, partial curve, poor fit]
3 | Cn1cccc1CC(=O)N/N=C/c1cc([N+](=O)[O-])ccc1Cl | 0.891 µM [rising, full curve, poor fit] | 
4 | O=C(CCCOc1ccc(Cl)cc1Cl)Nc1ccncc1 |  | 5.62 µM [rising, full curve]
5 | Cn1nc(-c2ccccc2)c2cc(C(=O)O)sc21 | 0.0126 µM [falling, full curve, poor fit] | 
6 | C[C@H](N)[C@H](O)c1cccc(O)c1 | 0.447 µM [falling, full curve] | 0.126 µM [falling, full curve, poor fit]
7 | S=C(NCCC(c1ccccc1)c1ccccc1)Nc1ccccc1Cl |  | 35.5 µM [falling, single point]
8 | Cc1[nH]c2ccccc2c1C(=O)Cn1c(=O)oc2ccccc21 |  | 8.91 µM [rising, partial curve, poor fit]
9 | CCOc1ccc(Cc2nnc(N)s2)cc1OCC |  | 35.5 µM [rising, single point]
10 | O=C(CC1Nc2cccc3cccc(c23)NC1=O)Nc1ccccc1 (centres undefined) |  | 5.01 µM [rising, partial curve, poor fit]
11 | NNc1ncnc2scc(-c3ccc(Cl)cc3)c12 |  | 20 µM [rising, partial curve]
12 | Cc1cccc(NC(=O)c2ccc(C3SCC(=O)N3CCc3ccccc3)cc2)c1C (centres undefined) |  | 12.6 µM [rising, partial curve]
13 | Cc1noc(C)c1S(=O)(=O)N1CCCC(C(=O)Nc2ccc(Cl)cn2)C1 (centres undefined) | 35.5 µM [rising, single point] | 
14 | COc1cc(C(Nc2ccccn2)c2ccc3ccc(C)nc3c2O)cc(OC)c1O (centres undefined) | 14.1 µM [rising, partial curve] | 10 µM [rising, partial curve]
15 | CS(=O)(=O)N(CC(=O)Nc1ccccc1C(=O)NCc1ccco1)c1ccc2c(c1)OCCO2 |  | 22.4 µM [rising, single point]
16 | Cc1sc2nc(CSc3ccccc3)nc(N3CCN(C)CC3)c2c1C | 15.8 µM [rising, partial curve, poor fit] | 
17 | COc1cccc(-c2ccc3ncnc(N4CCOCC4)c3c2)c1 | 11.2 µM [falling, partial curve] | 10 µM [falling, partial curve]
18 | O=C(CSc1nnc(-c2ccncc2)n1-c1ccccc1)Nc1ccc(Cl)c(Cl)c1 |  | 22.4 µM [falling, partial curve, poor fit]

2 records picked at random from those above:
Row | Compound | AC50 [1] | AC50 [2]
1 | COc1ccc(N2CCN(C(=O)c3ccc(C)c(Cl)c3)CC2)cc1 | 17.8 µM [rising, single point] | 22.4 µM [rising, single point]
8 | Cc1[nH]c2ccccc2c1C(=O)Cn1c(=O)oc2ccccc21 |  | 8.91 µM [rising, partial curve, poor fit]

More records.

Row | Compound | AC50 [1] | AC50 [2]
19 | CN(C)S(=O)(=O)c1ccc(C(=O)Nc2ccccn2)cc1 | 10 µM [rising, partial curve] | 15.8 µM [rising, partial curve, poor fit]
20 | COc1ccc(NC(=O)CSC2=Nc3ccccc3C3=NC(CC(=O)NCc4ccco4)C(=O)N23)cc1 (centres undefined) | 17.8 µM [rising, single point] | 
21 | O=C(CCSc1ccccc1)Nc1ccccc1Br |  | 4.47 µM [rising, partial curve]
22 | c1ccc(CN2CCC(Nc3nc(-c4ccccc4)nc4ccccc34)CC2)cc1 | 15.8 µM [rising, single point] | 31.6 µM [rising, single point]
23 | CC(OC(=O)c1cc2sccc2n1C)C(=O)NCC1CCCO1 (centres undefined) |  | 35.5 µM [rising, single point]
24 | COc1ccc(-c2ccccc2)cc1NCc1ccc(OC)c(OC)c1 | 12.6 µM [rising, single point] | 25.1 µM [rising, single point]
25 | O=C(NCCCN1CCOCC1)C(=O)N/N=C/c1c(Cl)cccc1Cl |  | 6.31 µM [falling, single point]
26 | CCOc1cc(CNC(=O)c2ccccc2NC(=O)c2nsc3ccccc23)ccc1OC | 8.91 µM [falling, partial curve, poor fit] | 35.5 µM [falling, partial curve]
27 | CCOC(=O)c1sc(NC(=O)c2ccc(C)s2)cc1C | 14.1 µM [falling, single point] | 0.0251 µM [falling, single point]
28 | CN1CCc2c1nc1ccccc1c2N=C1CCCN1Cc1ccccc1 | 7.08 µM [rising, single point] | 11.2 µM [rising, single point]
29 | C/C(CC(=O)Nc1ccc(Cl)c(C(F)(F)F)c1)=N\NC(=O)c1cccc(O)c1 | 35.5 µM [falling, partial curve, poor fit] | 14.1 µM [falling, partial curve, poor fit]
30 | COc1ccc(S(=O)(=O)c2c(Nc3c(C)cccc3C)sc(C(=O)c3ccc4c(c3)OCO4)c2N)cc1 | 15.8 µM [falling, partial curve, poor fit] | 
31 | Clc1ccc(OCCCc2nc(-c3cccnc3)no2)c(Cl)c1 | 17.8 µM [rising, single point] | 31.6 µM [rising, single point]
32 | Cn1c(-[n+]2c(-c3ccccc3)cc(-c3ccccc3)cc2-c2ccccc2)nc2cc([N+](=O)[O-])ccc21 |  | 3.98 µM [rising, single point]
33 | COc1ccc(NC(C)C(=O)Nc2cc(C(F)(F)F)ccc2N2CCOCC2)c(OC)c1 (centres undefined) |  | 25.1 µM [rising, single point]
34 | CCCC(CCC)=NNc1ccc(S(=O)(=O)Nc2ccccc2OC)cc1[N+](=O)[O-] | 11.2 µM [rising, partial curve] | 25.1 µM [rising, single point]
35 | COC(=O)c1c(NC(=O)/C=C/C(=O)O)sc(Cc2ccccc2)c1C |  | 35.5 µM [rising, single point]
